Data reported in PubChem BioAssay AID2417 (National Center for Advancing Translational Sciences (NCATS), 2010).
About 4,300 (3.1%) of roughly 140,000 compounds were called active. The inconclusive results got no clear call from the source; some entries with a clear call stand among them for comparison.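 How the source made its calls: active means readout at or below -70, meaning at least 70% loss of cells showing the perinucleolar compartment, a nuclear body marking cancer cells; inconclusive means readout between -30 and a set limit; inactive means the rest.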

Experiment: High Content Assay for Compounds that inhibit the Assembly of the Perinucleolar Compartment;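 further: plate controls were DMSO wells for no effect and camptothecin positive control wells for full effect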
Conditions: PC3M PTB-GFP, PNC prevalence imaging, 16 h; at 10 µM; active compounds read low
Outline: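 Compounds are pinned in duplicate onto adhered PC3M cells stably expressing GFP-tagged PTB and incubated 16 h at 37 C. Cells are then fixed, nuclei stained with Hoechst, and PNC-positive cells counted.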

SMILES	activity change (PNC), negative = inhibition
Cc1cc(C(=O)NC(C)C)on1	inconclusive: -42.3%
Cn1c(=O)c(=O)n(C)c2cc(S(=O)(=O)N3CCc4ccccc43)ccc21	inconclusive: -51.1%
COc1ccccc1C(=O)NCc1ccc2c(c1)OCO2	inconclusive: -33.2%
Cc1ccc(-n2nnnc2SCC(=O)N2CCc3ccccc3C2)cc1	active: -100%
Cc1ccc(C(=O)NCCN2CCOCC2)cc1	inactive: 29.8%
O=C(CSc1ccc2nnc(-c3cccnc3)n2n1)N1CCc2ccccc21	inconclusive: -42.2%
COC(=O)c1ccc(COC(=O)c2c(C)nn(Cc3ccccc3Cl)c2Cl)o1	inconclusive: -62.7%
CCCOc1ccc(C(=O)N2CCN(c3ccc(N)cc3Cl)CC2)cc1	inconclusive: -40.9%
Cc1ccc(-c2n[nH]c3c2CCC3)cc1	inactive: 18.5%
COc1ccc(CCNC(=O)C2CCN(C(=O)N(C)C)CC2)cc1OC	inconclusive: -57.5%
CC(C)(C)OC(=O)N1CCC(c2cc(=O)n3[nH]cc(C(=O)NC4CCCC4)c3n2)CC1	inconclusive: -41.8%
Cc1ccccc1NC(=O)CSCCO	inconclusive: -72%
C/C(=N\NC(=O)c1ccc([N+](=O)[O-])c(C)c1)c1ccccc1Cl	inconclusive: -36.6%
COC(=O)C1=CN(C)C=C(C(=O)OC)C1c1ccc(Cl)cc1Cl	active: -80.4%
CCCOc1ccc2oc(=O)c3c(c2c1)CCCN3C(=O)CN1CCc2ccccc2C1	inactive: 27.7%
O=C(/C=C\NCC(=O)c1ccccc1)c1ccccc1	inconclusive: -35.9%
COc1ccc(C(=O)Nc2cc(=O)n(C)c(=O)n2C)cc1OC	inconclusive: -56%
CC(=O)Nc1ccc(Nc2cc(C)nc3c(-c4ccccc4)c(C)nn23)cc1	inconclusive: -46.5%
O=C(C1CCC(CNS(=O)(=O)c2cccc3cccnc23)CC1)N1CCc2ccccc21 (stereo unspecified)	inactive: -20%
COc1cc(OC)cc(OCC(O)Cn2ccnc2C)c1 (stereo unspecified)	inconclusive: -56.7%
CCOC(=O)c1sc(NC(=O)c2ccc(S(=O)(=O)N3CCOCC3)cc2)nc1-c1ccccc1	inconclusive: -42.9%
C/C(=N\NC(=O)c1ccn[nH]1)c1cn(C)nc1C	inconclusive: -37.7%
O=C(Nc1ccccc1)c1ccc(S(=O)(=O)N2CCOCC2)cc1	inconclusive: -37.9%

A second format for 12 compounds above:
SMILES,"activity change (PNC), negative = inhibition"
Cc1cc(C(=O)NC(C)C)on1,inconclusive: -42.3%
Cn1c(=O)c(=O)n(C)c2cc(S(=O)(=O)N3CCc4ccccc43)ccc21,inconclusive: -51.1%
COc1ccccc1C(=O)NCc1ccc2c(c1)OCO2,inconclusive: -33.2%
Cc1ccc(-n2nnnc2SCC(=O)N2CCc3ccccc3C2)cc1,active: -100%
COC(=O)c1ccc(COC(=O)c2c(C)nn(Cc3ccccc3Cl)c2Cl)o1,inconclusive: -62.7%
COc1ccc(CCNC(=O)C2CCN(C(=O)N(C)C)CC2)cc1OC,inconclusive: -57.5%
CC(C)(C)OC(=O)N1CCC(c2cc(=O)n3[nH]cc(C(=O)NC4CCCC4)c3n2)CC1,inconclusive: -41.8%
Cc1ccccc1NC(=O)CSCCO,inconclusive: -72%
C/C(=N\NC(=O)c1ccc([N+](=O)[O-])c(C)c1)c1ccccc1Cl,inconclusive: -36.6%
CC(=O)Nc1ccc(Nc2cc(C)nc3c(-c4ccccc4)c(C)nn23)cc1,inconclusive: -46.5%
COc1cc(OC)cc(OCC(O)Cn2ccnc2C)c1 (stereo unspecified),inconclusive: -56.7%
C/C(=N\NC(=O)c1ccn[nH]1)c1cn(C)nc1C,inconclusive: -37.7%

Remaining list, next part:

SMILES	activity change (PNC), negative = inhibition
COc1ccc(OC)c(C2CC(c3c(-c4ccccc4)c4cc(Cl)ccc4[nH]c3=O)=NN2S(C)(=O)=O)c1 (stereo unspecified)	inconclusive: -37.9%
CCCN(CCC)c1ncnc2nc[nH]c12	inactive: 0.302%
CN(C)c1nc(OCCNC(=O)COc2ccccc2Cl)nc(N(C)C)n1	active: -83.6%
O=C1CCCc2c1[nH]c1ccc(Cl)cc21	inactive: 3.76%
Cc1nnc(Nc2ccc3c(c2)ncn3C)c2ccccc12	inconclusive: -42.1%
O=C(c1ccncc1)c1ccc(Br)cc1	inconclusive: -44.8%
O=C(NCc1cccs1)c1nc2c(nnn2Cc2ccc(F)cc2)c(=O)[nH]1	inactive: -21%
COc1ccc(Nc2cccccc2=O)cc1	inconclusive: -33.6%
Cc1ccn2c(C(=O)N/N=C\c3cccs3)c(C)nc2c1	inconclusive: -32.5%
CC(=O)Nc1ccc(-c2cn3ccsc3n2)cc1	inconclusive: -35%
COc1ccc(C2C(C(=O)O)CC(=O)N2c2ccc(OC)cc2)cc1 (stereo unspecified)	inactive: -13.6%
Cc1cc(NC(=O)c2ccc(S(=O)(=O)N3CCCC3)cc2)nc2c1c(=O)oc1ccccc12	inconclusive: -30.4%
CCOC(=O)c1[nH]c(C(=O)O)c(CCN(CC)CC)c1C	inactive: 0.285%
CCCCOCCCNC(=O)N[C@@H](CC(C)C)C(=O)O	inconclusive: -65.3%
CC(C)CSc1ncnc2c1oc1nc3c(cc12)COC(C)(C)C3	inconclusive: -32.8%
Cc1cccc(C(OC(=O)c2ccco2)C(=O)NCc2ccccc2)n1 (stereo unspecified)	inconclusive: -49.6%
CC(NC(=O)c1ccc(CS(=O)(=O)c2ccc(Cl)cc2)o1)c1ccc2c(c1)OCCO2 (stereo unspecified)	inactive: -1.13%
CCOC(=O)c1ccc(NC(=O)CSc2nnc(C3CC3)n2CC)cc1	inconclusive: -32.4%
CCCCNC(=O)c1onc(CSc2cccc(C)c2)c1C(=O)O	inactive: 2.2%
Cc1cc(C(F)(F)F)c2c(n1)sc1c(O)cc(=O)[nH]c12	inactive: -11.1%
COC(=O)c1ccc(Cl)c(-c2ccc(/C=N/NC(=O)Nc3ccccc3)o2)c1	inconclusive: -55%
CCOc1ccc(-c2nnc(N3CCCCC3)c3ccccc23)cc1	inactive: 24.9%
CCn1c(SCC(=O)Nc2ncc(C(F)(F)F)cc2Cl)nnc1-c1cccc(C)c1	inconclusive: -43.5%
